Measurements as given in patent US20030203888A1, “Chromophores” (priority 2001, published 2003).
Entries after “also recorded” stand apart in the source; their conditions may differ.

What was measured:
HeLa cells [1] = test: Confocal laser scanning microscopy of intracellular localisation; assay type: cell-based, human; conditions: 514 nm excitation; for cellular localisation: Z-series fluorescence images
HeLa cells [2] = test: Transfer of non-covalently protein-bound fluorophore to HeLa cells; assay type: cell-based, human; conditions: for increase in fluorescence on re-suspension of the cells: HeLa cells after 20 min incubation with non-covalent fluorophore-protein complexes

| Molecule | cellular uptake / penetration (HeLa cells [1]) | cellular localisation (HeLa cells [1]) | increase in fluorescence on re-suspension of the cells (HeLa cells [2]) | removal of fluorescence from the solution with removal of the HeLa cells (HeLa cells [2]; non-covalent fluorophore-protein complexes (BSA or avidin), incubated 20 min) |
| --- | --- | --- | --- | --- |
| OH6-NCS-BSA: conjugate of 10,15,20-tris(3,5-dihydroxyphenyl)5-isothiocyanatophenylporphyrin (OH6-NCS) with BSA | had entered the cell; also recorded: good conjugate penetration | largely distributed throughout the cytoplasm |  |  |
| COc1ccc(-c2c3nc(cc4ccc([nH]4)c(-c4ccc(NC(C)=O)cc4)c4nc(cc5ccc2[nH]5)C(O)C4O)C(O)C3O)cc1 (stereo not shown) [Example 12, 7,8,17,18-tetrahydroxy-5-(4-acetamidophenyl)-15-(4-methoxyphenyl)bacteriochlorin] |  |  | modest increase |  |
| COc1ccc(-c2c3nc(cc4ccc([nH]4)c(-c4ccc(NC(C)=O)cc4)c4nc(cc5ccc2[nH]5)C=C4)C(O)C3O)cc1 (stereo not shown) [Example 10, 17,18-Dihydroxy-5-(4-acetamidophenyl)-15-(4-methoxyphenyl)chlorin] |  |  | 10 fold | much more marked |
| Nc1ccc(-c2c3nc(c(-c4cc(O)cc(O)c4)c4ccc([nH]4)c(-c4cc(O)cc(O)c4)c4nc(c(-c5cc(O)cc(O)c5)c5ccc2[nH]5)C=C4)C=C3)cc1 [OH6-NH2, 5-(4-Aminophenyl)-10,15,20-tris(3,5-dihydroxyphenyl)porphyrin] | not found to penetrate the cellular membrane | localised on the plasma membrane |  |  |
